Data: PMC12050090
No constants are given. Whether binding was seen depends on the method and setting. Binding seen in cells or lysates may run through a third protein. Some binding calls cover weakened binding; strength is not graded here.

Sequences of proteins named here, by UniProt entry; tags and fusion partners are left off.
UniProt P23258: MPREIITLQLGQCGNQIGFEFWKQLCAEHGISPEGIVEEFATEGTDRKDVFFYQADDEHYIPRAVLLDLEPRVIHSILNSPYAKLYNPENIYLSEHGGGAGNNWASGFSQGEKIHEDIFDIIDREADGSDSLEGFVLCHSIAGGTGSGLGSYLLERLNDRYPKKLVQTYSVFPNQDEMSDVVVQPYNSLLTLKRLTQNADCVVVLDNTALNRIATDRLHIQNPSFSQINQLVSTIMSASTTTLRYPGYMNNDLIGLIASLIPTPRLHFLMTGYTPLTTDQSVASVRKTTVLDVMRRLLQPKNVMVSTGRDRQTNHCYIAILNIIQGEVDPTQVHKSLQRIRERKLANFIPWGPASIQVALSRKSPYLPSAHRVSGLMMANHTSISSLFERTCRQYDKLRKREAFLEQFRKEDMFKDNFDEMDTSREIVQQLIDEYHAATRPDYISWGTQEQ
UniProt P13010: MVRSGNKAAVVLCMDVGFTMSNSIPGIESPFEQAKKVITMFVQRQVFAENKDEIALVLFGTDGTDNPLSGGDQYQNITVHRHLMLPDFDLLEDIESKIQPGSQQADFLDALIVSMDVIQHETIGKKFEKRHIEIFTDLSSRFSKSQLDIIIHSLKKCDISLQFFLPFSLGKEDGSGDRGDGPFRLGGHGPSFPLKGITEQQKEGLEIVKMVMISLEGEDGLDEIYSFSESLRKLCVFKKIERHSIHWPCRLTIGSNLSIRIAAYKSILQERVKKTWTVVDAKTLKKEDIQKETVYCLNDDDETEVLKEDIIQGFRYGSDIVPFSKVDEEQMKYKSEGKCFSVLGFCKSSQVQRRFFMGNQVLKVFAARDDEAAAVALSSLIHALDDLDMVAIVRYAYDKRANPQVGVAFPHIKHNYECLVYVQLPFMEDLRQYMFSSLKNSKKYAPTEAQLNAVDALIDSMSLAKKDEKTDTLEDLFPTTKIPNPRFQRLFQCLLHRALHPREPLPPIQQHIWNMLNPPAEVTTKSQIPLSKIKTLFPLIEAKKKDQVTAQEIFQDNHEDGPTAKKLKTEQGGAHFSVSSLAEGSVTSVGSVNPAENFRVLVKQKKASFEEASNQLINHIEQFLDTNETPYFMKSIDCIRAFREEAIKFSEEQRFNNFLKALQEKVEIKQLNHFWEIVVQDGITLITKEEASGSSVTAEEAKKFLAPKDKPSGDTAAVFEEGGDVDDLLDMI
UniProt Q06609: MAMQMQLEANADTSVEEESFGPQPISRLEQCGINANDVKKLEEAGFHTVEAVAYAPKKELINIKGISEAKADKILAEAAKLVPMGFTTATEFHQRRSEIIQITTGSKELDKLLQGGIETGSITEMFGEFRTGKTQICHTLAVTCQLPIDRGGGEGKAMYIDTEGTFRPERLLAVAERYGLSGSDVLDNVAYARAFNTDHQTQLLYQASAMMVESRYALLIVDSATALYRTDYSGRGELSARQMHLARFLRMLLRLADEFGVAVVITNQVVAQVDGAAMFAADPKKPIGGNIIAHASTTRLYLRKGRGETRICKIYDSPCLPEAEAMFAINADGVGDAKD
UniProt P15927: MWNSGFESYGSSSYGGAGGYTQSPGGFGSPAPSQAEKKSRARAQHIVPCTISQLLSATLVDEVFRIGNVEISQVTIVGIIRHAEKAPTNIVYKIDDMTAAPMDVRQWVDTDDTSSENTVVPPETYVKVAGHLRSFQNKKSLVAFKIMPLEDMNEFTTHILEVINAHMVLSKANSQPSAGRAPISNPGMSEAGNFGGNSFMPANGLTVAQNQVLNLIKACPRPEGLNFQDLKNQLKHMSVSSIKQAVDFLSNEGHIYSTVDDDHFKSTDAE
UniProt P27694: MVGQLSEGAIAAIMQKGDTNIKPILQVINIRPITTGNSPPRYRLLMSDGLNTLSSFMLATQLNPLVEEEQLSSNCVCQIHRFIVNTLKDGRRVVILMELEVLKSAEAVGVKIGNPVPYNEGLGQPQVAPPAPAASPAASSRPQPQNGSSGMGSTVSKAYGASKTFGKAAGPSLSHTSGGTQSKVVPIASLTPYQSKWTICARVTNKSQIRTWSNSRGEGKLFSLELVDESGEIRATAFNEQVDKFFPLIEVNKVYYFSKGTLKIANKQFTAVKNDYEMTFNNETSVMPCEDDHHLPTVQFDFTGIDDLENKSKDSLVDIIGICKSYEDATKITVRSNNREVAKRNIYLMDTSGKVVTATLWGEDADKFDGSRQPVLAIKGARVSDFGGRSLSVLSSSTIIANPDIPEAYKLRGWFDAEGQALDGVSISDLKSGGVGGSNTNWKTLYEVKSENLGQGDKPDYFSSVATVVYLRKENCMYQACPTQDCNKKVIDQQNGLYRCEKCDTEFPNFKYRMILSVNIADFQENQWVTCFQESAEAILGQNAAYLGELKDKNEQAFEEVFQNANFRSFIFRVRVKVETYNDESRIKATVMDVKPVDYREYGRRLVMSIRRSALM
UniProt Q96SD1: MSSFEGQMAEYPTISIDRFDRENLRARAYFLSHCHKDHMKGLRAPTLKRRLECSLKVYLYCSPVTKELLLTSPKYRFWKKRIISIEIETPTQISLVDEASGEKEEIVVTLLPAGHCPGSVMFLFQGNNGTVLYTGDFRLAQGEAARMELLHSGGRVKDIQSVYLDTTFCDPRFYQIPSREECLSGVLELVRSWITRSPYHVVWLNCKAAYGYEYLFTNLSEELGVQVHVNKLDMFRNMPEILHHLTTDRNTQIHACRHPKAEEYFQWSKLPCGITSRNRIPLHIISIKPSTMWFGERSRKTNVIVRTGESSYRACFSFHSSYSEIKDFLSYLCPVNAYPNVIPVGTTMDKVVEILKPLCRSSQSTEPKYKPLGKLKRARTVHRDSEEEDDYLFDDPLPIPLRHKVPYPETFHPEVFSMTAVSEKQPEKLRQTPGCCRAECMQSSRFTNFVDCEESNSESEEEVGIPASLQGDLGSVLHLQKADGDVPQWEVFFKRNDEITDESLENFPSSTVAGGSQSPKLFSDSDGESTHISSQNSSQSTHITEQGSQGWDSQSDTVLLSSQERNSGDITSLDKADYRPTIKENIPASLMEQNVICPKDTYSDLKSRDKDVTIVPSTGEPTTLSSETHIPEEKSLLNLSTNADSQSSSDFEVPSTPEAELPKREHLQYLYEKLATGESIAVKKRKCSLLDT
UniProt P09874: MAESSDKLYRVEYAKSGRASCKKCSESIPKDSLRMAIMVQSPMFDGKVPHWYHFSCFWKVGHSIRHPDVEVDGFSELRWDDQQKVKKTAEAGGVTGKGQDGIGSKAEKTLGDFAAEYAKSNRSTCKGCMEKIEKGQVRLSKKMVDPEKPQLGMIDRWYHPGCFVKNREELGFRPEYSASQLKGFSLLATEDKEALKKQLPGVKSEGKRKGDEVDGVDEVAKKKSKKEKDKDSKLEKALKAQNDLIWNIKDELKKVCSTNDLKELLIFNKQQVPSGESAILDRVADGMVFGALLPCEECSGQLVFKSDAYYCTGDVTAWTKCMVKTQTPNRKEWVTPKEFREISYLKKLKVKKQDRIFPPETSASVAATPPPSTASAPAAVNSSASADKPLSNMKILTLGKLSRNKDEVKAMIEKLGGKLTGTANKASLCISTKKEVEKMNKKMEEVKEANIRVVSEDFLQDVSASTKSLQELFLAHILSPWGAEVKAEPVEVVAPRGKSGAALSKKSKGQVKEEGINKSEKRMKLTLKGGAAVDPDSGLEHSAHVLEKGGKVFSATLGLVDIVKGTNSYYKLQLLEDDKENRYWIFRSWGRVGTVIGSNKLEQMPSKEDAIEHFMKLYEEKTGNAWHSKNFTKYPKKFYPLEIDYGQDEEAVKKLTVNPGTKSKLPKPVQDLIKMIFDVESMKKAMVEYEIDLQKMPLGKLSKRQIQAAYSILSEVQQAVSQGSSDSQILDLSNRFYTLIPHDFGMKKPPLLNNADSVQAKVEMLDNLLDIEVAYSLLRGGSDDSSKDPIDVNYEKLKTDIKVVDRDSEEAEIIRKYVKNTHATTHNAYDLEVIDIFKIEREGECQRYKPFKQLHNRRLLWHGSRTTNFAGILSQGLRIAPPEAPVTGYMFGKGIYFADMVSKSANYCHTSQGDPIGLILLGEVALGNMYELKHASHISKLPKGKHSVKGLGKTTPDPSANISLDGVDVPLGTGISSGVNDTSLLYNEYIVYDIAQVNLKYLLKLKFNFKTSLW

target: γ-tubulin (human (endogenous in HeLa)) (UniProt P23258); assay: co-IP; anti-γ-tubulin antibody on magnetic beads incubated with HeLa cell lysates, cells with or without etoposide; washed three times with PBS; control with blank beads; immunoblotting

binding, binds:
Ku80 (from UniProt P13010 1-732)
RAD51 (from UniProt Q06609 1-339)
RPA32 (from UniProt P15927 1-270)
RPA70 (from UniProt P27694 1-616)
artemis (from UniProt Q96SD1 1-692)
poly-ADP-ribose polymerase 1 (from UniProt P09874 1-1014)

target: Ku80 (human (endogenous in HeLa)) (UniProt P13010); assay: co-IP; anti-Ku80 antibody on magnetic beads incubated with lysates of HeLa cells treated with bleomycin; washed three times with PBS; control with blank beads; immunoblotting

binding, binds:
γ-tubulin (from UniProt P23258 1-451)
